Source: PMC10157491
Construct, isoform or probe ends are uncertain for at least one entry. Negatives hold for the conditions tested. Tags and fusion partners may be left off the protein sequences shown.

Target: T1, His6-NhaR (UniProt P0A9G2)
T1 sequence (looked up, limits assumed): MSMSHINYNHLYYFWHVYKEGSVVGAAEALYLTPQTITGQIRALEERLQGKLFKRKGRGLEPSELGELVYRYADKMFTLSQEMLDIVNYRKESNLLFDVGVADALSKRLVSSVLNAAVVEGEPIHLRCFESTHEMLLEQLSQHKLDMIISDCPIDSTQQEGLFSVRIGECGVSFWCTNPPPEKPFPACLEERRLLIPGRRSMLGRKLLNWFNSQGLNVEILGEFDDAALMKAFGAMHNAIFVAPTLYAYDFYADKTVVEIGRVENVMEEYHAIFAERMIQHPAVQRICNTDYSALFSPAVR
Test: EMSA
Conditions: up to 600 nM NhaR; NhaR EMSA: 20 mM Tris-HCl pH 8.0, 100 mM NaCl, 1 mM DTT, 10% glycerol, 125 ug/mL BSA, 10 ng DNA in 10 uL, 25 C 20 min; recombinant protein; protein details: N-terminal His6 (pET28a NdeI-SalI)

## AATGACCTTTGGATAACCCTTTTTATGCTCCGTGAAAGCGATCACAAAGGGACTCTGCAATACTTGTTTGCG (double strand) [PbipA]
  binding result: no binding
